In the supplement of paper PMC10849652:
The other results are listed elsewhere or left out.

Protein sequences, listed by entry. Tags and fused reporters are not part of them. Lines headed by an entry give the natural chain unless they say otherwise; changes in a name come on top.
UniProt P10398: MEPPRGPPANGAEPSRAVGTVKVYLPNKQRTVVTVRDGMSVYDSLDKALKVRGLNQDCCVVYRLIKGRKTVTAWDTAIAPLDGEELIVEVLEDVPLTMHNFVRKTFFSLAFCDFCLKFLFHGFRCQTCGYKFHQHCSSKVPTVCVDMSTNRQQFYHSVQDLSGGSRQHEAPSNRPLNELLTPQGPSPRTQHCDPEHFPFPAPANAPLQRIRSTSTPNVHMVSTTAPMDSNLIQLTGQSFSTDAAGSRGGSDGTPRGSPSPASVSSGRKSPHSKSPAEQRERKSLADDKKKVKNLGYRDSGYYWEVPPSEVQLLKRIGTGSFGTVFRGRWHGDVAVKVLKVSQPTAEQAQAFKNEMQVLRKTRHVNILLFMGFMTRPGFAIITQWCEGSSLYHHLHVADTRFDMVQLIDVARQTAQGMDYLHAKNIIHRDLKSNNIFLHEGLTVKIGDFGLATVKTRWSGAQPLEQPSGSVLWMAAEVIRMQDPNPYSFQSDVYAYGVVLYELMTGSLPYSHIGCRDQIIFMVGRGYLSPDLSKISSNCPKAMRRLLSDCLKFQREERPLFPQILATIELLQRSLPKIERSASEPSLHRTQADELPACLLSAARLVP
UniProt P84085: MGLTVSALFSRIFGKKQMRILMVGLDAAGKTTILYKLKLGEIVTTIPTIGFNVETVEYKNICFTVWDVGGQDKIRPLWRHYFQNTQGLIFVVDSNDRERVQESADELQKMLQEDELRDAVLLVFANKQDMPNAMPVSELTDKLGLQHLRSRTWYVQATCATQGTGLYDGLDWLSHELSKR
UniProt P32121, whole entry, looked up: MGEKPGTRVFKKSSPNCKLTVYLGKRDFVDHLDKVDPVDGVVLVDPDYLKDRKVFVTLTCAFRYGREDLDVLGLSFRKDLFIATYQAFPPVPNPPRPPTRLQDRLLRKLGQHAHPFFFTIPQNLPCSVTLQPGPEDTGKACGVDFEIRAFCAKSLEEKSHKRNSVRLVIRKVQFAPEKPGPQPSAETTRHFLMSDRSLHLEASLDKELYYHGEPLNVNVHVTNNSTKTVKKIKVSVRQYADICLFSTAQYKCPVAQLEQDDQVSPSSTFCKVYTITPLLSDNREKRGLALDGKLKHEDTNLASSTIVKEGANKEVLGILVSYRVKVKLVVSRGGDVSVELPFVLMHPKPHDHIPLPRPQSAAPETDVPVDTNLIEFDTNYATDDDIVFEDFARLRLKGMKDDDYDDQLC
UniProt Q06481, whole entry, looked up: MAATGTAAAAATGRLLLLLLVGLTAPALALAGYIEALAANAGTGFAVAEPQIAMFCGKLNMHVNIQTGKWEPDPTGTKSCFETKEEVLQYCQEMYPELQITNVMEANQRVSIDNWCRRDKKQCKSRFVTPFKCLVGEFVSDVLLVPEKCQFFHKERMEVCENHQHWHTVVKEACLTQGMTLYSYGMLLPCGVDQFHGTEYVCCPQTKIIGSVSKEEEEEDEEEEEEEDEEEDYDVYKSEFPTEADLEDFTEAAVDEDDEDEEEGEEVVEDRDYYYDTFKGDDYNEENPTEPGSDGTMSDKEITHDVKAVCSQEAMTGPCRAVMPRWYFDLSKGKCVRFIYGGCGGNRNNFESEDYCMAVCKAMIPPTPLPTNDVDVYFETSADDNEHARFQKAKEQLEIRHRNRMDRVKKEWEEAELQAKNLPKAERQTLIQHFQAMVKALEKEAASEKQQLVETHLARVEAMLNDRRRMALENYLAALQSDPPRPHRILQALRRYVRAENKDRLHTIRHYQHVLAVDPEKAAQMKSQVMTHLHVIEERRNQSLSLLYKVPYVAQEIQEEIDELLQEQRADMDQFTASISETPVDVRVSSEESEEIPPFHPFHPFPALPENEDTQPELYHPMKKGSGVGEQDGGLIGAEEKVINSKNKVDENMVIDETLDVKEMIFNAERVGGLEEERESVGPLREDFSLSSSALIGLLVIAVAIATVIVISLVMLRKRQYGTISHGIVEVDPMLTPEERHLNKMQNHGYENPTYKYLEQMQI
UniProt Q9Y4X5: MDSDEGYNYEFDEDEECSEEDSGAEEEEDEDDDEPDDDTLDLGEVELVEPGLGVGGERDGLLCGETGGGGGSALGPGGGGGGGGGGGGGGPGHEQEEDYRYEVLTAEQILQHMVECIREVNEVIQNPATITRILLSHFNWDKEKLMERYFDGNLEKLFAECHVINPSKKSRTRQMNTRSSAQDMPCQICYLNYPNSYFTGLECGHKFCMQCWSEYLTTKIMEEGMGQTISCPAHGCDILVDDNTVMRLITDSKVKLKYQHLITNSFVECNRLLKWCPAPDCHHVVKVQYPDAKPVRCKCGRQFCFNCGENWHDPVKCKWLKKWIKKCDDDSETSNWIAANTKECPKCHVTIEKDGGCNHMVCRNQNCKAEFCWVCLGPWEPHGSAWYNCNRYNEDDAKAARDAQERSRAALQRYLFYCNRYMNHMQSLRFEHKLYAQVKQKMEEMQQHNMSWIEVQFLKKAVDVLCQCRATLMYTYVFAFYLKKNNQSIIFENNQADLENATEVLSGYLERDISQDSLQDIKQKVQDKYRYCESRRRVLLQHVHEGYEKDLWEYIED
UniProt Q8TDY4: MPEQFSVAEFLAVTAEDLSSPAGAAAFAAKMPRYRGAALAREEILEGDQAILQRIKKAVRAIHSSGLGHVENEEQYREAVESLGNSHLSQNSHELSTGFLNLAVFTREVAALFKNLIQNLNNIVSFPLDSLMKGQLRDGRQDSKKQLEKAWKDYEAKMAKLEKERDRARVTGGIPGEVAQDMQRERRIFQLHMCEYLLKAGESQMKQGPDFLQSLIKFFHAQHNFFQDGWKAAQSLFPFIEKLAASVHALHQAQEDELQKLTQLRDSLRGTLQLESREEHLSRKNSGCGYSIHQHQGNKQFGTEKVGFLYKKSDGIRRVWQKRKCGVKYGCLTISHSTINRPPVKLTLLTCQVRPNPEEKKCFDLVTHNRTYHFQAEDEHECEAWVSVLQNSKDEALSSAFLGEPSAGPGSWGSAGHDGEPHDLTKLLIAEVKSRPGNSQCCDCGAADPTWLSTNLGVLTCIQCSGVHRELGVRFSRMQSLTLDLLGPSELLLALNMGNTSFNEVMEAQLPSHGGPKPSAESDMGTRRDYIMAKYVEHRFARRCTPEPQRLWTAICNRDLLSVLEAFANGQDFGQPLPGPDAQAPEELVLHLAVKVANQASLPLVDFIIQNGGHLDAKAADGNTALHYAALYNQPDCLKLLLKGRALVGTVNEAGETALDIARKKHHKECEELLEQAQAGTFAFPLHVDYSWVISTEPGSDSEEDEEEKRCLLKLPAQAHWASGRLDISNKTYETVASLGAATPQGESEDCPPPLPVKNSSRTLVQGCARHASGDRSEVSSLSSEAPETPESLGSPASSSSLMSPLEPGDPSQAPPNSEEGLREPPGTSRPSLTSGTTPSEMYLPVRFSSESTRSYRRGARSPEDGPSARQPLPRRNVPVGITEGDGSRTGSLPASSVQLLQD
UniProt Q96P48: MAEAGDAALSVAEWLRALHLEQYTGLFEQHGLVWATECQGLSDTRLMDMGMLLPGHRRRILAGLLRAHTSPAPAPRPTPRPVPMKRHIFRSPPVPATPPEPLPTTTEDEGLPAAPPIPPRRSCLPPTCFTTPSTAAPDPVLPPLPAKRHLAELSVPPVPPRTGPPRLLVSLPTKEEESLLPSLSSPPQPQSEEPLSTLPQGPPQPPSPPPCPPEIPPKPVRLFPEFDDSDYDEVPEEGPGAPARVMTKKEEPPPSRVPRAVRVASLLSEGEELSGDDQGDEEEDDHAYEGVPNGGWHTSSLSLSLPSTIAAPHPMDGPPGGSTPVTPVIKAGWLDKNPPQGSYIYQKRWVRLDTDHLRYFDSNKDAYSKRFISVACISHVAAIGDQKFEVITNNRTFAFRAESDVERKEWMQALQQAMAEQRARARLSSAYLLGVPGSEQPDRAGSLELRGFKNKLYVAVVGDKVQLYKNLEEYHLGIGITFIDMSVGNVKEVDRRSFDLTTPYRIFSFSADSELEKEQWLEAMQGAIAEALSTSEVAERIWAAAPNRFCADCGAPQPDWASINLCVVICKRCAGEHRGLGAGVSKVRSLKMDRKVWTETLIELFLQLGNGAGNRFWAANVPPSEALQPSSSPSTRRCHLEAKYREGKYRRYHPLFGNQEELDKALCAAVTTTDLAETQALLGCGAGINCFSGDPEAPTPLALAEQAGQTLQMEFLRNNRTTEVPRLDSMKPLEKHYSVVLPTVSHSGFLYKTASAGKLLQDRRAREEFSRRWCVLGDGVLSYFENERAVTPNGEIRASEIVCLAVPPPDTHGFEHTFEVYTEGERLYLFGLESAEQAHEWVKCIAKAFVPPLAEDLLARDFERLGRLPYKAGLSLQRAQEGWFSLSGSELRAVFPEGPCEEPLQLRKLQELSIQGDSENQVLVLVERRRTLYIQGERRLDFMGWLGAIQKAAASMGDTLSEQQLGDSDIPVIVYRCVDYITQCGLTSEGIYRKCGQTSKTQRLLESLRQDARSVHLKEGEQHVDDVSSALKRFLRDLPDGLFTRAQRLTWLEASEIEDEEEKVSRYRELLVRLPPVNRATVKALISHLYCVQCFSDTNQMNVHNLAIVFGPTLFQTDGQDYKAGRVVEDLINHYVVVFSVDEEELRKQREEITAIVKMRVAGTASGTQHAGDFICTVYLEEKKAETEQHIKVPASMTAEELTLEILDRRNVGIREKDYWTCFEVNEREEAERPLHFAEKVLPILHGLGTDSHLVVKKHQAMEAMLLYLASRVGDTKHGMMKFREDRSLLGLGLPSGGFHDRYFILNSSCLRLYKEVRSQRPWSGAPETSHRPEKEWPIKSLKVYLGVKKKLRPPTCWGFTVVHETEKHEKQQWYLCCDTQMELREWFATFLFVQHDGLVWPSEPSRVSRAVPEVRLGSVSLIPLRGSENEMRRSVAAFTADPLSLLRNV
UniProt P42331: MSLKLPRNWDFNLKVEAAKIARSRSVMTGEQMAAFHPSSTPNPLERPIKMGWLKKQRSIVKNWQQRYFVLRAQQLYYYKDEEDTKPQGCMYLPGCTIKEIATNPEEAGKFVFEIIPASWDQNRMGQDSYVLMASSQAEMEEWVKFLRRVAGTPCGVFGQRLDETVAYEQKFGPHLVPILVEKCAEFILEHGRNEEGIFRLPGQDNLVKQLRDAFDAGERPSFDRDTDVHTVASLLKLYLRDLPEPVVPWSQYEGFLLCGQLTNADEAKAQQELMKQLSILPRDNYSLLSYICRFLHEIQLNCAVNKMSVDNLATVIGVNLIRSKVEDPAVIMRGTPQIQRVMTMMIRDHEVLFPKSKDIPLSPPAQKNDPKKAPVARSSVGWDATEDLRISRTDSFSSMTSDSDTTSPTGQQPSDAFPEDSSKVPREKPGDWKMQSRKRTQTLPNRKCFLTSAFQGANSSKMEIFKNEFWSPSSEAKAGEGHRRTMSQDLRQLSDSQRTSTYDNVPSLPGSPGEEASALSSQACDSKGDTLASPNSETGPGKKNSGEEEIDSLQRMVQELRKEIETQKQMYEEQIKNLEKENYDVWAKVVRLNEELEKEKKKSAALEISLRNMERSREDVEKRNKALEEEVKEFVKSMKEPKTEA
UniProt Q8IUR7, whole entry, looked up: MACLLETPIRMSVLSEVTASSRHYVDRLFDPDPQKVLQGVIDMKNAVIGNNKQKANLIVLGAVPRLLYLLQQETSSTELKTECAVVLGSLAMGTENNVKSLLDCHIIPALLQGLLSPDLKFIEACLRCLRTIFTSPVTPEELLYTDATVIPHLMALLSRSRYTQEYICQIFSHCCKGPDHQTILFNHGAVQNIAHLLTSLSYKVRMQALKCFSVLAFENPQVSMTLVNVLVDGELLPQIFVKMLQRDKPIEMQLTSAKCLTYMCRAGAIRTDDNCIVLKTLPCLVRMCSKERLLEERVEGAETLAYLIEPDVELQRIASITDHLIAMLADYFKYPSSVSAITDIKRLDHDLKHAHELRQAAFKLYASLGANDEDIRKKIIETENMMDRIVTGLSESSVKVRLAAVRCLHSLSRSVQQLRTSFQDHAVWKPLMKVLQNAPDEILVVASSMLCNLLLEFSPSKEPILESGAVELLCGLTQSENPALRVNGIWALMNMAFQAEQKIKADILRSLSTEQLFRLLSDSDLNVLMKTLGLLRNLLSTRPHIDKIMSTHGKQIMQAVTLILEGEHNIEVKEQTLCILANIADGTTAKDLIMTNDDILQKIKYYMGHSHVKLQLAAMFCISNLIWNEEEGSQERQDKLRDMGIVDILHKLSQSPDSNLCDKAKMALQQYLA
UniProt Q9NXU5: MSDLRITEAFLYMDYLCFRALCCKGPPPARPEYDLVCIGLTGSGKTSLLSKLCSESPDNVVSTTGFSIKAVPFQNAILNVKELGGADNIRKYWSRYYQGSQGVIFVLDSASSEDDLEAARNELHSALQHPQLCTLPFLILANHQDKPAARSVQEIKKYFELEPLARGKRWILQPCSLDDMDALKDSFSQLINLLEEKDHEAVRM
UniProt P52566: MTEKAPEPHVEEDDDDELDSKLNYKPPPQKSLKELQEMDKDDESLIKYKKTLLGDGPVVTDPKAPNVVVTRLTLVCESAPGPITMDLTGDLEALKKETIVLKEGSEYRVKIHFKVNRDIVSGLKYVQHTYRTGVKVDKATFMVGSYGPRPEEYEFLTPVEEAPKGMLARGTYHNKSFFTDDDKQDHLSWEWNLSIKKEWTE

Tests used:
Assay in all cases: log2 fold change, soluble protein after heating vs DMSO (PISA); higher = thermal stabilisation; K562 lysate, 10 uM; active = over 0.2 and 3.5 SD of the protein, either way, in both replicates (recomputed)
[1] = compound: C1=CC=C(C=C1)[C@H](COC2=CC3=C(C=C2)NC(=O)N3)NC(=O)C4=CC=CN(C4=O)CC5=CC(=C(C=C5)F)F
Method in brief: (§1)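 Soluble protein was defined as the supernatant remaining after 21,000xg for 90 min, following pooling of heated aliquots and adjustment to 0.5% NP-40 at 4°C. Before that, crude K562 extract at 1 mg/mL protein in PBS pH 7.4 with 1 mM MgCl2 was treated with 10 μM compound for 30 min and heated for 3 min across 48°C-58°C. Quantification used TMTpro 16plex LC-MS/MS with channel sums equalised, and values are log-two fold changes in thermal stability relative to solvent controls from duplicates.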

[2] = compound: CC1=C(SC2=C1C(=N[C@H](C3=NN=C(N32)C)CC(=O)N)C4=CC=C(C=C4)Cl)C
Method in brief: as §1

[3] = compound: CC1=C2C(=CC=C1)N=C(N(C2=O)C3=CC=CC=C3C)CN4C=NC5=C(N=CN=C54)N
Method in brief: as §1

[4] = compound: Cc1sc2c(c1C)C(c1ccc(Cl)cc1)=N[C@@H](CC(=O)OC(C)(C)C)c1nnc(C)n1-2
Method in brief: as §1

[5] = compound: c1ccc([C@@H]2C[C@H]2NC2CCNCC2)cc1
Method in brief: as §1

Measured: log2 fold change

ARAF (UniProt P10398)
inactive: [1] 0.012 | [2] -0.002 | [3] -0.078 | [4] 0 | [5] 0.002

ARL14EP (UniProt Q8N8R7)
inactive: [1] 0 | [2] 0.067 | [3] -0.03 | [4] -0.006 | [5] 0.109

ARG2 (UniProt P78540)
inactive: [1] 0.042 | [2] 0.038 | [3] 0.012 | [4] -0.015 | [5] -0.009

ARHGAP12 (UniProt Q8IWW6)
inactive: [1] 0.01 | [2] 0.036 | [3] 0.098 | [4] -0.029 | [5] -0.085

ARF5 (UniProt P84085)
inactive: [1] 0.05 | [2] -0.04 | [3] 0.01 | [4] 0.017 | [5] -0.056

ARV1 (UniProt Q9H2C2)
inactive: [1] -0.085 | [2] -0.075 | [3] -0.044 | [4] -0.034 | [5] 0.01

ARHGEF6 (UniProt Q15052)
inactive: [1] 0.005 | [2] -0.066 | [3] -0.011 | [4] 0.02 | [5] 0.051

ARFGEF2 (UniProt Q9Y6D5)
inactive: [1] -0.043 | [2] 0.048 | [3] 0.031 | [4] -0.028 | [5] 0.017

APPL2 isoform 3 (UniProt Q8NEU8)
inactive: [1] 0.011 | [2] 0.022 | [3] -0.008 | [4] -0.078 | [5] 0.066

ARPC5L (UniProt Q9BPX5)
inactive: [1] 0.076 | [2] -0.079 | [3] 0.052 | [4] -0.012 | [5] -0.035

ARHGAP6 (UniProt O43182)
inactive: [1] -0.026 | [2] -0.023 | [3] -0.012 | [4] 0.018 | [5] 0.02

ARRB2 isoform 3 (UniProt P32121)
inactive: [1] -0.043 | [2] 0.008 | [3] -0.036 | [4] -0.011 | [5] -0.037

APLP2 (UniProt Q06481)
inactive: [1] 0.017 | [2] 0.042 | [3] 0.018 | [4] -0.043 | [5] -0.02

ARPC2 (UniProt O15144)
inactive: [1] 0.031 | [2] 0 | [3] 0.008 | [4] -0.007 | [5] 0

APOB (UniProt P04114)
inactive: [1] -0.009 | [2] 0.039 | [3] 0.023 | [4] -0.168 | [5] -0.109

APEH (UniProt P13798)
inactive: [1] 0.032 | [2] 0.024 | [3] -0.021 | [4] -0.007 | [5] 0.02

ARFRP1 (UniProt Q13795)
inactive: [1] 0.017 | [2] -0.029 | [3] -0.005 | [4] 0.029 | [5] -0.041

ARMC10 (UniProt Q8N2F6)
inactive: [1] -0.022 | [2] 0.074 | [3] 0.068 | [4] 0.02 | [5] 0.008

ARIH1 (UniProt Q9Y4X5)
inactive: [1] 0.02 | [2] -0.048 | [3] -0.005 | [4] -0.06 | [5] -0.05

ASAP3 (UniProt Q8TDY4)
inactive: [1] 0.078 | [2] 0 | [3] 0.012 | [4] 0.039 | [5] 0.063

ARFGAP3 (UniProt Q9NP61)
inactive: [1] 0.083 | [2] -0.031 | [3] 0.011 | [4] 0.01 | [5] -0.051

ARAP1 (UniProt Q96P48)
inactive: [1] 0.022 | [2] -0.008 | [3] 0.048 | [4] 0.013 | [5] -0.015

ARHGAP25 isoform 4 (UniProt P42331)
inactive: [1] 0.013 | [2] 0.016 | [3] 0.012 | [4] -0.046 | [5] 0.035

ARPC5 (UniProt O15511)
inactive: [1] 0.048 | [2] -0.009 | [3] 0.024 | [4] -0.027 | [5] 0.001

ARHGAP35 (UniProt Q9NRY4)
inactive: [1] -0.028 | [2] 0.004 | [3] -0.015 | [4] -0.009 | [5] -0.01

API5 isoform 2 (UniProt Q9BZZ5)
inactive: [1] 0.047 | [2] -0.026 | [3] 0.01 | [4] 0.003 | [5] 0.14

ARHGAP18 (UniProt Q8N392)
inactive: [1] -0.007 | [2] -0.015 | [3] 0.007 | [4] -0.005 | [5] 0

ARHGEF7 isoform 5 (UniProt Q14155)
inactive: [1] -0.035 | [2] 0.039 | [3] 0.008 | [4] 0.011 | [5] 0.025

ARID3A (UniProt Q99856)
inactive: [1] -0.034 | [2] 0.01 | [3] -0.021 | [4] 0.034 | [5] 0.059

ARRDC1 (UniProt Q8N5I2)
inactive: [1] -0.003 | [2] -0.001 | [3] -0.056 | [4] 0.09 | [5] -0.125

ARNT (UniProt P27540)
inactive: [1] 0.036 | [2] 0.001 | [3] 0.092 | [4] 0 | [5] -0.038

ARHGEF18 (UniProt Q6ZSZ5)
inactive: [1] -0.005 | [2] -0.004 | [3] 0.018 | [4] -0.065 | [5] -0.016

ARMC8 (UniProt Q8IUR7)
inactive: [1] 0.048 | [2] 0 | [3] -0.009 | [4] 0.002 | [5] 0.022

API5 (UniProt Q9BZZ5)
inactive: [1] 0.001 | [2] 0.01 | [3] 0.005 | [4] -0.037 | [5] -0.11

ARPP19 (UniProt H3BMD8)
inactive: [1] 0.034 | [2] -0.014 | [3] -0.064 | [4] -0.062 | [5] -0.152

ARMC6 (UniProt Q6NXE6)
inactive: [1] -0.046 | [2] -0.012 | [3] -0.017 | [4] 0.003 | [5] 0.043

ARHGDIA (UniProt P52565)
inactive: [1] 0.036 | [2] 0.003 | [3] 0.003 | [4] 0.008 | [5] -0.052

ARHGAP5 (UniProt Q13017)
inactive: [1] 0 | [2] 0.01 | [3] 0.016 | [4] -0.03 | [5] -0.033

ARL6IP1 (UniProt Q15041)
inactive: [1] 0 | [2] -0.003 | [3] -0.005 | [4] -0.05 | [5] -0.016

ASAP1 isoform 2 (UniProt Q9ULH1)
inactive: [1] 0.03 | [2] -0.001 | [3] 0.006 | [4] -0.046 | [5] 0.028

APEX1 (UniProt P27695)
inactive: [1] 0.055 | [2] 0.007 | [3] -0.007 | [4] 0.086 | [5] 0.131

APOL2 (UniProt J3KQL8)
inactive: [1] -0.062 | [2] -0.021 | [3] 0.102 | [4] 0.038 | [5] 0.085

ARIH2 (UniProt O95376)
inactive: [1] 0.001 | [2] -0.001 | [3] 0.039 | [4] -0.001 | [5] -0.076

ARL6IP4 (UniProt Q66PJ3)
inactive: [1] 0.051 | [2] 0.046 | [3] -0.059 | [4] -0.059 | [5] 0.084

APMAP (UniProt Q9HDC9)
inactive: [1] -0.005 | [2] -0.022 | [3] -0.001 | [4] -0.061 | [5] 0.005

ARMCX3 (UniProt Q9UH62)
inactive: [1] 0.015 | [2] 0.009 | [3] 0.029 | [4] -0.074 | [5] 0.053

ARL15 (UniProt Q9NXU5)
inactive: [1] 0.02 | [2] -0.005 | [3] 0.018 | [4] -0.009 | [5] 0.269

APPL1 (UniProt Q9UKG1)
inactive: [1] -0.016 | [2] 0.015 | [3] 0.019 | [4] 0.034 | [5] -0.011

ARL8B (UniProt Q9NVJ2)
inactive: [1] 0.018 | [2] -0.027 | [3] 0.017 | [4] -0.053 | [5] -0.092

Reprinted from the entries so far (4 entries):
ARMCX3 (UniProt Q9UH62)
inactive: [1] 0.015 | [2] 0.009 | [3] 0.029 | [4] -0.074 | [5] 0.053

ARL15 (UniProt Q9NXU5)
inactive: [1] 0.02 | [2] -0.005 | [3] 0.018 | [4] -0.009 | [5] 0.269

APPL1 (UniProt Q9UKG1)
inactive: [1] -0.016 | [2] 0.015 | [3] 0.019 | [4] 0.034 | [5] -0.011

ARL8B (UniProt Q9NVJ2)
inactive: [1] 0.018 | [2] -0.027 | [3] 0.017 | [4] -0.053 | [5] -0.092

(continued)

APAF1 (UniProt O14727)
inactive: [1] -0.013 | [2] 0.004 | [3] 0.022 | [4] 0.012 | [5] 0.02

ARHGDIB (UniProt P52566)
inactive: [1] 0.016 | [2] 0.023 | [3] 0.004 | [4] -0.092 | [5] 0.045

ARHGEF10 (UniProt O15013)
inactive: [1] 0.078 | [2] 0.05 | [3] 0.027 | [4] -0.133 | [5] -0.198

AQR (UniProt O60306)
inactive: [1] 0.014 | [2] -0.014 | [3] -0.026 | [4] 0.01 | [5] 0.04
